# According to article PMC10850913, “D-α-tocopheryl polyethylene glycol 1000 succinate surface scaffold polysarcosine based polymeric nanoparticles of enzalutamide for the treatment of colorectal cancer: In vitro, in vivo characterizations” (Heliyon, 2024):
# Test system: HCT116 cell line
# Test: Sulforhodamine B (SRB) cytotoxicity assay
# Assay type: cell-based
# Settings: Homo sapiens; HCT 116 cell line, 24-h incubation
# Method: Assessment of cytotoxicity for the given samples on the HCT116 cell line was conducted using the SRB Assay. This involved cultivating cells quantity of (8000 cells/well) in 96-well plate for 24 h in DMEM medium which was continuously nourished with solution of 1 % antibiotic solution at 37 °C and 10 % FBS and 5 % CO2. These cells were treated in varied different concentrations dosage of 1–2500 μM on next day. Various concentrations were prepared in an incomplete medium. Following a 24-h incubation period, 100 μL of Tri Chloro Acetic Acid (TCA, 10 %) was introduced to each well, and plate was incubated for an additional hour. Subsequently, the plate was washed with DM water and air-dried at room temperature. SRB Solution, with a final concentration of 0.04 %, was applied to each well and allowed to sit for 1 h. After this incubation period, the plate underwent washing with 1 % (v/v) acetic acid to eliminate unbound dye, followed by air-drying at room temperature. Tris base solution (pH = 10.5) was added to each well and shaken on an orbital shaker for 10 min to solubilize the protein-bound dye. The absorbance was measured using an Elisa plate reader (iMark, Biorad, USA) at 510 nm.
smiles,measurement,value
"CNC(=O)c1ccc(N2C(=S)N(c3ccc(C#N)c(C(F)(F)F)c3)C(=O)C2(C)C)cc1F [ENZ, Enzalutamide]",IC50,134 µM
